The other results are listed elsewhere or left out.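 How the source made its calls: active = dose-dependent thermal stabilisation significant by F-test of dose-response against flat model at 10% FDR; inactive = not significant.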

Protein sequences, listed by entry. Tags and fused reporters are not part of them. Lines headed by an entry give the natural chain unless they say otherwise; changes in a name come on top.
UniProt P49588, whole entry: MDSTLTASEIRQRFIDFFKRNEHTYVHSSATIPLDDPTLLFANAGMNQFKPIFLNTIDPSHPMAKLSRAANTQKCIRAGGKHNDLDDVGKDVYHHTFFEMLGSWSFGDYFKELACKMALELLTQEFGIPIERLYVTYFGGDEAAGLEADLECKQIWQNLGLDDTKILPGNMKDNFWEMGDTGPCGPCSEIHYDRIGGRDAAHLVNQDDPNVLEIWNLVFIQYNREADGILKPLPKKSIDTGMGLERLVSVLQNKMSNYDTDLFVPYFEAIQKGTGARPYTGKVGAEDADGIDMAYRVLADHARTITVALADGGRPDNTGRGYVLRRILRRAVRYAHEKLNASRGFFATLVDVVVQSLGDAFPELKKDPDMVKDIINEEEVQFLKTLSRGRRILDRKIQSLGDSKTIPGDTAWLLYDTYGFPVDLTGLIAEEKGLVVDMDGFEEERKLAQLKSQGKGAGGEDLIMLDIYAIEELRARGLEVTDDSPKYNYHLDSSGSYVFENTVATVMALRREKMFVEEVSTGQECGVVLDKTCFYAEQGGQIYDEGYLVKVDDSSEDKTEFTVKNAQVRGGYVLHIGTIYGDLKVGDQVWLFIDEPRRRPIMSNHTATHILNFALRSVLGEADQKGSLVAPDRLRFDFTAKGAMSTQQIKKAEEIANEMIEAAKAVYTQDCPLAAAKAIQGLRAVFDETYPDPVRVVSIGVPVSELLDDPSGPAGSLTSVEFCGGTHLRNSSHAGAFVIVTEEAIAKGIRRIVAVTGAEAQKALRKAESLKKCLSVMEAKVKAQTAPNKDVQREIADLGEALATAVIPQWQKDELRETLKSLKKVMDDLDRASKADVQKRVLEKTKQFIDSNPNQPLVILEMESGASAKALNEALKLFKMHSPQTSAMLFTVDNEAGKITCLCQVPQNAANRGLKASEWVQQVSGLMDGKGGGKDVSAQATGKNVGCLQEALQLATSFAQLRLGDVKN
UniProt P31749: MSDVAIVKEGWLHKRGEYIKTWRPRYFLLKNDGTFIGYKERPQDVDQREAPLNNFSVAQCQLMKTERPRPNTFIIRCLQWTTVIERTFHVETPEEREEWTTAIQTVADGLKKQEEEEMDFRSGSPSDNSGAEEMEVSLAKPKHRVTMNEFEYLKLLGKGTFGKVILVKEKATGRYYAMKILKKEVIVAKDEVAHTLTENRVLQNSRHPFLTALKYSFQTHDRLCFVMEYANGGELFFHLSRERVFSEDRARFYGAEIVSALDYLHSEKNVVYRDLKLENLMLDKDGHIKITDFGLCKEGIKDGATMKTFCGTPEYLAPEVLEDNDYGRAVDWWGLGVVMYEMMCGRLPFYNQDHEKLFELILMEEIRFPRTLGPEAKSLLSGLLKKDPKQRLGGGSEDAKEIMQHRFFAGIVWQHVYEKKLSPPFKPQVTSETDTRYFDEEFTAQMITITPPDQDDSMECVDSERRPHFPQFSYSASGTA
UniProt Q99798: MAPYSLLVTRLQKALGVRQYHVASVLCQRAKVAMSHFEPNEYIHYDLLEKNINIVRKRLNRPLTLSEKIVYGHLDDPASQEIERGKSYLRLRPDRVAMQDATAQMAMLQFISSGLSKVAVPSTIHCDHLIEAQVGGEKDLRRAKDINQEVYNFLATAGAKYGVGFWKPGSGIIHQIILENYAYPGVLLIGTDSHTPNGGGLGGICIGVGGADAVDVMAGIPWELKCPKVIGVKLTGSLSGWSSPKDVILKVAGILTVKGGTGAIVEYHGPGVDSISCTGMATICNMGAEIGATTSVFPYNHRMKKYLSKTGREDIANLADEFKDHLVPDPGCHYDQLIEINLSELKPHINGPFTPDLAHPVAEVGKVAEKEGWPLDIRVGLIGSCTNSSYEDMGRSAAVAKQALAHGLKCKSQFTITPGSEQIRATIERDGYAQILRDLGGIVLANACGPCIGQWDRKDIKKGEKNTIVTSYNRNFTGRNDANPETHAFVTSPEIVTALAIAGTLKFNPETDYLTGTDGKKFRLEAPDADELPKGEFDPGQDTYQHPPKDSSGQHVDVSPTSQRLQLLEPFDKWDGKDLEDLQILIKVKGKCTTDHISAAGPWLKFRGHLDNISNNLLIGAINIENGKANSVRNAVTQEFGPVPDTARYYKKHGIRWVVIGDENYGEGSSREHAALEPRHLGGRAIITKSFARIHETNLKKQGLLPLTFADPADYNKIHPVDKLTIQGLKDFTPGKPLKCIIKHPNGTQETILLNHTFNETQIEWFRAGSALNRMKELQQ
UniProt Q6UB98: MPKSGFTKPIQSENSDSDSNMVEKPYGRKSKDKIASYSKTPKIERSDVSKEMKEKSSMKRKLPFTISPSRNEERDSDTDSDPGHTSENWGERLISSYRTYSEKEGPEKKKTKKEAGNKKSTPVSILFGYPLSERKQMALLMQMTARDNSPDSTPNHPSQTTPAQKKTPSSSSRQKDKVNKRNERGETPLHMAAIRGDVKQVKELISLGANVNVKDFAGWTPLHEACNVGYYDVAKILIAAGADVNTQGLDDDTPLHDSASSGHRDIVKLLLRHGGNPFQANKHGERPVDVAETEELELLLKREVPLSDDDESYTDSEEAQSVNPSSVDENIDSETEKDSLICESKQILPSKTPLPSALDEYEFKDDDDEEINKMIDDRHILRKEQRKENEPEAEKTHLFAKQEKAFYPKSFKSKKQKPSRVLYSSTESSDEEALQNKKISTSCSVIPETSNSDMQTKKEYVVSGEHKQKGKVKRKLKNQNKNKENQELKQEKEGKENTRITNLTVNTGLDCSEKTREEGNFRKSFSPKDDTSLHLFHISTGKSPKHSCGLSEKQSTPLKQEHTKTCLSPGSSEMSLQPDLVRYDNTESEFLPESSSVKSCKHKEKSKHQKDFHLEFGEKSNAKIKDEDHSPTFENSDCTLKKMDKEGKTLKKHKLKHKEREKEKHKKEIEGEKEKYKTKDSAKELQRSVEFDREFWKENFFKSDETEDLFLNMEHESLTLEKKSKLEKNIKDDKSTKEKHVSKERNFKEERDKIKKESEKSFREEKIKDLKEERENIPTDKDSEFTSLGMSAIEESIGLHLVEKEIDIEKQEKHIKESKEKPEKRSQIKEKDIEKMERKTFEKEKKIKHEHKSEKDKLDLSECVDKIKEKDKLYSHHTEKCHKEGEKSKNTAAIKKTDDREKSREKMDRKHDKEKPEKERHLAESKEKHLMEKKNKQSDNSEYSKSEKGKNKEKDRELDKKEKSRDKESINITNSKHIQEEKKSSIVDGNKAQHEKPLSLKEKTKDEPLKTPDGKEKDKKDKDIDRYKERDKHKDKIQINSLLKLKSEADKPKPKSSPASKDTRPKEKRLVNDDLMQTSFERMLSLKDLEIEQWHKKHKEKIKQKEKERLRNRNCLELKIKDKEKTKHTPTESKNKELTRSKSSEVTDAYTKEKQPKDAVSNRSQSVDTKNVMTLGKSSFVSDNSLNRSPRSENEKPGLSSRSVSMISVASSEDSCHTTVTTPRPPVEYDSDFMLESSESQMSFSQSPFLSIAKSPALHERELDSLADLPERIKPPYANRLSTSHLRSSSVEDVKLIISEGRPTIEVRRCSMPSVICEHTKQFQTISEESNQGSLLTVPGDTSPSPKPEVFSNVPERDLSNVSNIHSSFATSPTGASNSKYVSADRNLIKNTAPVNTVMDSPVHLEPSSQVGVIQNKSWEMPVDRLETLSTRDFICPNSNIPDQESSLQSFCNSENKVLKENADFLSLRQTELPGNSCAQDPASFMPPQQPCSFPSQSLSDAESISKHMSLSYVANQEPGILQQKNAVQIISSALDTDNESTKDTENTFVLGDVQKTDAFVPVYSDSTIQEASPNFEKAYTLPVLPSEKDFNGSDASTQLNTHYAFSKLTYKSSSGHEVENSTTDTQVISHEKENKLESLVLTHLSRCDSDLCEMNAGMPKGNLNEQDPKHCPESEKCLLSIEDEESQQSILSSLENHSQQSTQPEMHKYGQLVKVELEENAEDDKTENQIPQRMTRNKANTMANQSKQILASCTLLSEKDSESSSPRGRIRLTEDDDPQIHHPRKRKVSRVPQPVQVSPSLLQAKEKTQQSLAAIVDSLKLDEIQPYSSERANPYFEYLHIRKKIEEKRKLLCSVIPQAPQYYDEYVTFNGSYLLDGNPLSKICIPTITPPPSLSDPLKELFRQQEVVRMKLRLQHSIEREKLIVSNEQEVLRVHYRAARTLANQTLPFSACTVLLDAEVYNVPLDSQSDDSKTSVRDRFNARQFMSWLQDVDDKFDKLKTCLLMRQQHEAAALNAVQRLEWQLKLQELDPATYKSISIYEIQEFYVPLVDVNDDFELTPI
UniProt P61204: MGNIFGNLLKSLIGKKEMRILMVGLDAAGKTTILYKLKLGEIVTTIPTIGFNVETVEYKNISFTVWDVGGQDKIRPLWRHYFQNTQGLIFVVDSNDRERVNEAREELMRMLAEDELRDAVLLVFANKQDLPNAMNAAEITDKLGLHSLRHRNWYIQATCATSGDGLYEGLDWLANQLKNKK
UniProt P21399: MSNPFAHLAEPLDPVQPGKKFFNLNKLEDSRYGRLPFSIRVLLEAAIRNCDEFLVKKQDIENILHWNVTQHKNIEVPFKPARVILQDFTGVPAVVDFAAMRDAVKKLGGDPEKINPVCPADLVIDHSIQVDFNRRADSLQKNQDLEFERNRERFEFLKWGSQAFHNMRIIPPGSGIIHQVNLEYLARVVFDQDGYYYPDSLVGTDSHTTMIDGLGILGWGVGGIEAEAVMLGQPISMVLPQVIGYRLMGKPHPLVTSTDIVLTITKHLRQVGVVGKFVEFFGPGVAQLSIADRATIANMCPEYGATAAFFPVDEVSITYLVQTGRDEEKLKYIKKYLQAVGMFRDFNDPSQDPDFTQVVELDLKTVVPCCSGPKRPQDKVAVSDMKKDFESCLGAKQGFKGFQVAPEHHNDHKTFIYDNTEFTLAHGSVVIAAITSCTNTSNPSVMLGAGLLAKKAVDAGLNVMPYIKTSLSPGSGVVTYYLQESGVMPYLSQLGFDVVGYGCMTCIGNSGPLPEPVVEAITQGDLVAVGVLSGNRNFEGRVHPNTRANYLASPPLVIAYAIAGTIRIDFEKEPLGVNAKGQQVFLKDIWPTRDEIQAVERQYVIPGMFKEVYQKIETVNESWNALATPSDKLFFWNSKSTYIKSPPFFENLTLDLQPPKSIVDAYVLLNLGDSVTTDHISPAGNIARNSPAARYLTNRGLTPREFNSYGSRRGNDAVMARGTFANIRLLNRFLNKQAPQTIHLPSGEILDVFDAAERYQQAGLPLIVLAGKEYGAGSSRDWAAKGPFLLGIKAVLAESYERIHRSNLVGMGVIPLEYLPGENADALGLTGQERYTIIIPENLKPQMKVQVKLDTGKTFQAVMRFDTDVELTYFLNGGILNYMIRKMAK
UniProt P02771: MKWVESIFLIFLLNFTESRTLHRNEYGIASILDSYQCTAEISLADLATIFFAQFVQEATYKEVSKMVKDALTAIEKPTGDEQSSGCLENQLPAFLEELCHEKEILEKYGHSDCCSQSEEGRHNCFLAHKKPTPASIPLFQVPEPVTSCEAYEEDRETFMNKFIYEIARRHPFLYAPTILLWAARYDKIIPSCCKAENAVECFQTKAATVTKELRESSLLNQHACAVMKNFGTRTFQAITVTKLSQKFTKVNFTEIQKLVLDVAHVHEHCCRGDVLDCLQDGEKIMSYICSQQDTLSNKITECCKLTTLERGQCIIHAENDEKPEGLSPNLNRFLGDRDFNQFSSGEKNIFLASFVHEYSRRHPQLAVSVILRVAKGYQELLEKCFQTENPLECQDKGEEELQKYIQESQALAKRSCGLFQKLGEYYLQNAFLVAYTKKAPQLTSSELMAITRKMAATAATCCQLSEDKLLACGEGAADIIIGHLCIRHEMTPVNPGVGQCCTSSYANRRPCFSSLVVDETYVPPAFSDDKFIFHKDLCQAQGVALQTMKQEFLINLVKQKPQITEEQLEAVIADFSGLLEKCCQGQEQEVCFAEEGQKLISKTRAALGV
UniProt Q92624: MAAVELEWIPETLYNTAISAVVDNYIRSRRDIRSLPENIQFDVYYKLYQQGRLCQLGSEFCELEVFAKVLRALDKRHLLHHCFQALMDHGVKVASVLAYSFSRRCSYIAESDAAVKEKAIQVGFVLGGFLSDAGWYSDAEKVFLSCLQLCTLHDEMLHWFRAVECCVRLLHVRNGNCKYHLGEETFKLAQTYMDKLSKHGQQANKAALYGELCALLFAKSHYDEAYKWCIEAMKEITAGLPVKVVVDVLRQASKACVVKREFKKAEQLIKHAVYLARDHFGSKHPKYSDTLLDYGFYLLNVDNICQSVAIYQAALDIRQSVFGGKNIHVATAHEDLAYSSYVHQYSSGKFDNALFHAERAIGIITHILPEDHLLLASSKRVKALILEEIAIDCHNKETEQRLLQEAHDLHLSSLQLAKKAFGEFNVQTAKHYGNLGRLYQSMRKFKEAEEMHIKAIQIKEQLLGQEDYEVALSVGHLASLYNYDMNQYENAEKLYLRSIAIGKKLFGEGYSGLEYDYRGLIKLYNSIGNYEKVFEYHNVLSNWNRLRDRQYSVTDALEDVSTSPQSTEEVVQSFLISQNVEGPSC

Compound in this experiment: Nc1nc2c(ncn2[C@@H]2O[C@H](COP(=O)(O)OP(=O)(O)OP(=O)(O)O)[C@@H](O)[C@H]2O)c(=O)[nH]1
Put plainly: dose-dependent thermal stabilisation call (2D-TPP, DLPTP, 10% FDR) (binary (1 = stabilised)); higher = stabilised by the compound. The following applies: system: Jurkat gel-filtered lysate; concentration range 1-500 µM.
Turning to AARS (UniProt P49588), the “dose-dependent thermal stabilisation call” value is inactive: 0.

In the case of AP2M1 (UniProt Q96CW1), the “dose-dependent thermal stabilisation call” value is inactive: 0. As for ALG13 (UniProt Q9NP73), the “dose-dependent thermal stabilisation call” value was inactive: 0. In the case of AKT1 (UniProt P31749), the “dose-dependent thermal stabilisation call” value is active: 1. The value for ANKRD13A (UniProt Q8IZ07) was inactive: 0.

Take AHCTF1 (UniProt Q8WYP5): the “dose-dependent thermal stabilisation call” value is inactive: 0.

Turning to AFTPH (UniProt Q6ULP2), the “dose-dependent thermal stabilisation call” value was inactive: 0.

As to AMOT (UniProt Q4VCS5), the “dose-dependent thermal stabilisation call” value was inactive: 0. Regarding ALKBH4 (UniProt Q9NXW9), the “dose-dependent thermal stabilisation call” value was inactive: 0. The value for ACO2 (UniProt Q99798) was inactive: 0.

With ANKRD12 (UniProt Q6UB98), the “dose-dependent thermal stabilisation call” value was inactive: 0. In the case of ALKBH3 (UniProt Q96Q83), the “dose-dependent thermal stabilisation call” value is inactive: 0.

Regarding AP3M2 (UniProt P53677), the “dose-dependent thermal stabilisation call” value is inactive: 0. For the target ARF3 (UniProt P61204), the “dose-dependent thermal stabilisation call” value was active: 1. Take ACO1 (UniProt P21399): the “dose-dependent thermal stabilisation call” value is inactive: 0. Regarding AFP (UniProt P02771), the “dose-dependent thermal stabilisation call” value is inactive: 0. Take ACTR1A (UniProt P61163): the “dose-dependent thermal stabilisation call” value is active: 1. With ACBD6 (UniProt Q9BR61), the “dose-dependent thermal stabilisation call” value is inactive: 0. Regarding ADPRHL2 (UniProt Q9NX46), the “dose-dependent thermal stabilisation call” value was inactive: 0. Turning to AARSD1 (UniProt Q9BTE6), the “dose-dependent thermal stabilisation call” value was inactive: 0.

APPBP2 (UniProt Q92624): the “dose-dependent thermal stabilisation call” value was inactive: 0.

Take ARFGEF2 (UniProt Q9Y6D5): the “dose-dependent thermal stabilisation call” value is inactive: 0. Take ARHGAP1 (UniProt Q07960): the “dose-dependent thermal stabilisation call” value is inactive: 0. For the target ANAPC5 (UniProt Q9UJX4), the “dose-dependent thermal stabilisation call” value is inactive: 0. With ARHGAP17 (UniProt Q68EM7) the figure was active: 1. Take ACTN4 (UniProt O43707): the “dose-dependent thermal stabilisation call” value was active: 1. Take ADA2 (UniProt Q9NZK5): the “dose-dependent thermal stabilisation call” value is inactive: 0.
